The values below come from article PMC6902002, “Recognition and processing of branched DNA substrates by Slx1–Slx4 nuclease”.

These are yes or no findings as the source states them, for the method shown. Some entries that bind do so weakly or less than the wild type.

The target in this test is T1, Candida glabrata Slx1, wild type (Candida glabrata) (UniProt Q6FML9).
T1 sequence: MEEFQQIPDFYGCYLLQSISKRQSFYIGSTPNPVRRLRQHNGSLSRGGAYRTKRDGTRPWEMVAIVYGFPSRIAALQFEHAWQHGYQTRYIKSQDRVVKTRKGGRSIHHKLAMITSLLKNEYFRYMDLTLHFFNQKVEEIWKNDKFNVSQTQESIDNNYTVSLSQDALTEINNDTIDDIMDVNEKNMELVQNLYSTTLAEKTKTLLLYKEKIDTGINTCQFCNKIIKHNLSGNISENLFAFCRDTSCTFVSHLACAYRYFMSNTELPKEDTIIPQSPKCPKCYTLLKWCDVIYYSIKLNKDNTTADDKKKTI
Put plainly: co-purification; Cg-Slx1 (wild type or point substitution variant) purified as a complex with Cg-Slx4^CCD, as described earlier (ref. 21).

B1: Candida glabrata Slx4 conserved C-terminal domain (residues 557-726) (domain or fragment, UniProt Q6FJQ6 557-726)
chain: LANIELTEEHEVLGNIDGQPGEELFAVVLSISNNLELLSSPGVDTHTKEKSPSLAELRKDLDKIGLKPVRLKSQIIENLASASQVVTVDESNQKKVGVTSKSEVFEFLTHLVKQEPDLLTRIYCFQPITMNDLINKLRNKDSFVDLIDDGTIREWTDKLGICIRSNNLKD
On to B1, for which the binding entry is on record as “binds”.
